No constants are given. Whether binding was seen depends on the method and setting. Some binding calls cover weakened binding; strength is not graded here.
T1: Cysteine-rich intestinal protein 1 (CRIP1), purified chimeric protein not reacted with enterokinase (human) (UniProt P50238)
T1 sequence: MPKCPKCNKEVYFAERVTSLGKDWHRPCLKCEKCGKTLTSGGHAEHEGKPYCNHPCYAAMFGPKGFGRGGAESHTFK


What follows are binders tested against T1, Cysteine-rich intestinal protein 1 (CRIP1), purified chimeric protein not reacted with enterokinase (human) (assay: ELISA; individual phage clones against immobilised purified chimeric CRIP1 (not reacted with enterokinase); relative binding affinities; only the target purified).
CLKDNHRSCGGGS [phage clone A1 (peptide displayed on pIII)] was tested, and the binding was “binds”. With CYDPIWRTCGGGS [phage clone B5 (peptide displayed on pIII)] the binding was “binds”. With CTPRQSPICGGGS [phage clone C5 (peptide displayed on pIII)] the binding was “binds”.

— article PMC2453235, “Identification and Rational Redesign of Peptide Ligands to CRIP1, A Novel Biomarker for Cancers” (PLoS Computational Biology, 2008)
